Laboratory results: PubChem BioAssay AID1259405 (NCATS, 2018)
In all, the deposit lists about 50,000 reagents; below is a part drawn at random. About 4,000 of them (8%) were called active. 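Mouse siRNA library applied to hamster cells; one well for each siRNA.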 Entries without a mark were called inactive. Reagents against one gene are numbered here. No sequences are given here.

- Purpose: 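Mouse-designed siRNAs used to find CHO productivity engineering targets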 (primary screen)
- System: Chinese hamster CHO-K1 ovary cells with stable secreted eGFP expression
- Knock-down reagent: single siRNA against mouse genes, 0.8 pmol siRNA per well (2 µl of 400 nM stock)
- Time to read-out: 3 days
- Detection: 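Per-well intracellular GFP measured by laser scanning cytometry, plus viability from ATP luminescence, each relative to plate median of non-targeting control wells, in %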
- Scale: GFP, % of control: higher = more GFP per well, higher productivity; viability (ATP), % of control: higher = more viable cells (more ATP)
- Call rule: 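Called active when intracellular GFP, relative to negative control, is at or above 120%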

no.	Target gene	siRNA no.	GFP, % of control	viability (ATP), % of control
1	Eif3a	1	76.7	91.9
2	Eif3a	2	28.3	11.6
3	Eif3a	3	129 (active)	84.8
4	Ccr4	1	31.7	40.7
5	Ccr4	2	75.9	74.8
6	Ccr4	3	97.5	105
7	Fpgs	1	118	73.2
8	Fpgs	2	87.5	79.2
9	Fpgs	3	61.8	52.9
10	4921509C19Rik	1	45.2	74
11	4921509C19Rik	2	46.4	50.7
12	4921509C19Rik	3	93.6	76.6
13	Tbc1d12	1	116	105
14	Tbc1d12	2	75.8	61.2
15	Tbc1d12	3	66	47.6
16	Plcg2	1	118	118
17	Plcg2	2	152 (active)	118
18	Plcg2	3	52.1	62.9
19	Sash3	1	114	122
20	Sash3	2	47.7	104
21	Sash3	3	66.5	33.9
22	Or8j3	1	123 (active)	90.6
23	Or8j3	2	23.6	89.1
24	Or8j3	3	80.4	76.8

Hits, among the entries above:
Target gene	siRNA no.	GFP, % of control	viability (ATP), % of control
Eif3a	3	129 (active)	84.8
Plcg2	2	152 (active)	118
Or8j3	1	123 (active)	90.6

Further records:
no.	Target gene	siRNA no.	GFP, % of control	viability (ATP), % of control
25	Npy1r	1	74.3	53
26	Npy1r	2	90.4	79.4
27	Npy1r	3	89.4	65.1
28	Irgm1	1	40.5	53.2
29	Irgm1	2	72	70.1
30	Irgm1	3	95.5	83.1
31	Gpr68	1	72.1	76.2
32	Gpr68	2	53.7	71.2
33	Gpr68	3	61.1	77
34	Vldlr	1	104	95.4
35	Vldlr	2	53.7	67.4
36	Vldlr	3	85.2	80.7
37	Dop1b	1	70.2	80
38	Dop1b	2	67.9	63.6
39	Dop1b	3	80.3	66.3
40	Lrrcc1	1	107	121
41	Lrrcc1	2	47.9	72.2
42	Lrrcc1	3	34.1	96.3
43	Macir	1	69.7	80.1
44	Macir	2	87.3	80.7
45	Macir	3	52.6	76.6
46	Ncf1	1	97.9	89.1
47	Ncf1	2	82.2	90.5
48	Ncf1	3	48.4	60.2
49	Mtfmt	1	43.9	73.9
50	Mtfmt	2	60.1	54.8
51	Mtfmt	3	91.9	90
52	Chrdl1	1	72.7	55.8
53	Chrdl1	2	33.8	44.5
54	Chrdl1	3	62.8	60.4
55	Brca2	1	123 (active)	123
56	Brca2	2	82.4	55.1
57	Brca2	3	64.2	75.9
